PubChem BioAssay AID1259308, NCATS – 2017

- Purpose: 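Candidate targets for better recombinant protein yield in mammalian cells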 (primary screen)
- Cells: human HEK293 embryonic kidney cells stably expressing firefly luciferase (HEK-CMV-Luc2-Hygro)
- Knock-down reagent: single siRNA against human genes, 0.8 pmol siRNA per well
- Duration: 72 h
- Read-out: 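Reporter luminescence and viable-cell signal on separate replicate plates, given as percent of non-targeting control and median/MAD z-scores, plus per-cell luciferase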
- Scale: total luciferase, z-score and total luciferase, % of control: higher = more reporter protein produced
- Hit rule: 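An siRNA counts as active if its total luciferase robust z-score exceeds 3; genes with two or more such siRNAs out of three were retested with fresh siRNAs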
- Calls: active = raised luciferase; inactive = no rise
Shown is an unselected part of about 59,000 deposited reagents. About 1,510 of them (2.6%) count as active. 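Calls use total luciferase alone and ignore viability, so some active siRNAs may act by altering cell number.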 A number with no mark means an inactive call. The numbers tell different reagents against one gene apart. Not all columns of the deposit are shown.

BPIFB1 #1 | total luciferase, z-score = 0.809; total luciferase, % of control = 98
BPIFB1 #2 | total luciferase, z-score = -0.94; total luciferase, % of control = 63.2
BPIFB1 #3 | total luciferase, z-score = 1.52; total luciferase, % of control = 112
GPR75 #1 | total luciferase, z-score = 0.393; total luciferase, % of control = 89.7
GPR75 #2 | total luciferase, z-score = 0.492; total luciferase, % of control = 91.7
GPR75 #3 | total luciferase, z-score = -1.32; total luciferase, % of control = 55.7
SPDYE14 #1 | total luciferase, z-score = 0.915; total luciferase, % of control = 100
SPDYE14 #2 | total luciferase, z-score = -0.201; total luciferase, % of control = 77.9
SPDYE14 #3 | total luciferase, z-score = 1.31; total luciferase, % of control = 108
CFDP1 #1 | total luciferase, z-score = 0.42; total luciferase, % of control = 90.2
CFDP1 #2 | total luciferase, z-score = -0.743; total luciferase, % of control = 67.1
CFDP1 #3 | total luciferase, z-score = -1.22; total luciferase, % of control = 57.6
PADI1 #1 | total luciferase, z-score = 0.158; total luciferase, % of control = 85
PADI1 #2 | total luciferase, z-score = 2.14; total luciferase, % of control = 124
PADI1 #3 | total luciferase, z-score = -0.0909; total luciferase, % of control = 80.1
PIP4K2B #1 | total luciferase, z-score = -0.518; total luciferase, % of control = 71.6
PIP4K2B #2 | total luciferase, z-score = -0.112; total luciferase, % of control = 79.7
PIP4K2B #3 | total luciferase, z-score = 0.482; total luciferase, % of control = 91.5
SEMA3A #1 | total luciferase, z-score = 0.363; total luciferase, % of control = 89.1
SEMA3A #2 | total luciferase, z-score = 0.888; total luciferase, % of control = 99.6
SEMA3A #3 | total luciferase, z-score = 0.0129; total luciferase, % of control = 82.1
GRM7 #1 | total luciferase, z-score = 0.603; total luciferase, % of control = 93.9
GRM7 #2 | total luciferase, z-score = -1.04; total luciferase, % of control = 61.1
GRM7 #3 | total luciferase, z-score = -0.906; total luciferase, % of control = 63.9
ZNF181 #1 | total luciferase, z-score = 1.33; total luciferase, % of control = 108
ZNF181 #2 | total luciferase, z-score = -0.0691; total luciferase, % of control = 80.5
ZNF181 #3 | total luciferase, z-score = -0.779; total luciferase, % of control = 66.4
RPLP1P7 #1 | total luciferase, z-score = -1.34; total luciferase, % of control = 55.2
RPLP1P7 #2 | total luciferase, z-score = -1.33; total luciferase, % of control = 55.5
RPLP1P7 #3 | total luciferase, z-score = -0.966; total luciferase, % of control = 62.7
GPN2 #1 | total luciferase, z-score = -0.687; total luciferase, % of control = 68.2
GPN2 #2 | total luciferase, z-score = -1.44; total luciferase, % of control = 53.2
GPN2 #3 | total luciferase, z-score = -0.395; total luciferase, % of control = 74
